Assay [1] concerns the target p16^INK4a (full-length human, Gal4 binding domain fusion, yeast two-hybrid bait) (human) (UniProt P42771). Briefly: two-hybrid; Matchmaker2 Gal4 system, Y190 yeast; p16^INK4a in pAS2 (Gal4 binding domain) as bait, human brain cDNA library in pACT2 (Gal4 transactivation domain) as prey.
Assay [2] has as its target FLAG-tagged BRG1 (full-length) (UniProt P51532). Briefly: co-IP; U2OS cells co-transfected with MYC-p16^INK4a and FLAG-BRG1, lysed 24 h later in IP-buffer (50 mM Tris pH7.4, 150 mM NaCl, 1 mM EDTA, 1% NP-40, 0.25% sodium deoxycholate); precipitated with mouse anti-Flag antibody on Dynal beads, matched mouse IgG and control vector as controls.
The target of assay [3] is endogenous p16^INK4a of WS-1 normal human dermal fibroblasts (human (endogenous in WS-1)) (UniProt P42771). Briefly: co-IP; 5 mg nuclear lysate of WS-1 normal human dermal fibroblasts at passage 20; precipitated with mouse anti-p16^INK4a antibody or matched mouse IgG, protein-A-agarose; endogenous BRG1 detected by blot.
Assay [4] deals with p16^INK4a induced with IPTG in WMM1175_p16^INK4a melanoma cells (human) (UniProt P42771). Briefly: co-IP; 5 mg nuclear lysate of WMM1175_p16^INK4a cells induced with 4 mM IPTG or mock treated for 72 hours; precipitated with mouse anti-p16^INK4a antibody or matched mouse IgG, protein-A-agarose; endogenous BRG1 detected by blot.

The chains behind the UniProt entries cited, without tags or fusion partners. Where a name states a change or a piece, a line headed by the entry shows the natural chain unless it says otherwise.
UniProt P42771: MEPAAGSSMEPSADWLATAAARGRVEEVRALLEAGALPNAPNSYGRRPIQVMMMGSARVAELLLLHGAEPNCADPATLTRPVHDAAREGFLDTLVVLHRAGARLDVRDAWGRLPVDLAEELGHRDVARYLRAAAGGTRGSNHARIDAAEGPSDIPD
UniProt P51532: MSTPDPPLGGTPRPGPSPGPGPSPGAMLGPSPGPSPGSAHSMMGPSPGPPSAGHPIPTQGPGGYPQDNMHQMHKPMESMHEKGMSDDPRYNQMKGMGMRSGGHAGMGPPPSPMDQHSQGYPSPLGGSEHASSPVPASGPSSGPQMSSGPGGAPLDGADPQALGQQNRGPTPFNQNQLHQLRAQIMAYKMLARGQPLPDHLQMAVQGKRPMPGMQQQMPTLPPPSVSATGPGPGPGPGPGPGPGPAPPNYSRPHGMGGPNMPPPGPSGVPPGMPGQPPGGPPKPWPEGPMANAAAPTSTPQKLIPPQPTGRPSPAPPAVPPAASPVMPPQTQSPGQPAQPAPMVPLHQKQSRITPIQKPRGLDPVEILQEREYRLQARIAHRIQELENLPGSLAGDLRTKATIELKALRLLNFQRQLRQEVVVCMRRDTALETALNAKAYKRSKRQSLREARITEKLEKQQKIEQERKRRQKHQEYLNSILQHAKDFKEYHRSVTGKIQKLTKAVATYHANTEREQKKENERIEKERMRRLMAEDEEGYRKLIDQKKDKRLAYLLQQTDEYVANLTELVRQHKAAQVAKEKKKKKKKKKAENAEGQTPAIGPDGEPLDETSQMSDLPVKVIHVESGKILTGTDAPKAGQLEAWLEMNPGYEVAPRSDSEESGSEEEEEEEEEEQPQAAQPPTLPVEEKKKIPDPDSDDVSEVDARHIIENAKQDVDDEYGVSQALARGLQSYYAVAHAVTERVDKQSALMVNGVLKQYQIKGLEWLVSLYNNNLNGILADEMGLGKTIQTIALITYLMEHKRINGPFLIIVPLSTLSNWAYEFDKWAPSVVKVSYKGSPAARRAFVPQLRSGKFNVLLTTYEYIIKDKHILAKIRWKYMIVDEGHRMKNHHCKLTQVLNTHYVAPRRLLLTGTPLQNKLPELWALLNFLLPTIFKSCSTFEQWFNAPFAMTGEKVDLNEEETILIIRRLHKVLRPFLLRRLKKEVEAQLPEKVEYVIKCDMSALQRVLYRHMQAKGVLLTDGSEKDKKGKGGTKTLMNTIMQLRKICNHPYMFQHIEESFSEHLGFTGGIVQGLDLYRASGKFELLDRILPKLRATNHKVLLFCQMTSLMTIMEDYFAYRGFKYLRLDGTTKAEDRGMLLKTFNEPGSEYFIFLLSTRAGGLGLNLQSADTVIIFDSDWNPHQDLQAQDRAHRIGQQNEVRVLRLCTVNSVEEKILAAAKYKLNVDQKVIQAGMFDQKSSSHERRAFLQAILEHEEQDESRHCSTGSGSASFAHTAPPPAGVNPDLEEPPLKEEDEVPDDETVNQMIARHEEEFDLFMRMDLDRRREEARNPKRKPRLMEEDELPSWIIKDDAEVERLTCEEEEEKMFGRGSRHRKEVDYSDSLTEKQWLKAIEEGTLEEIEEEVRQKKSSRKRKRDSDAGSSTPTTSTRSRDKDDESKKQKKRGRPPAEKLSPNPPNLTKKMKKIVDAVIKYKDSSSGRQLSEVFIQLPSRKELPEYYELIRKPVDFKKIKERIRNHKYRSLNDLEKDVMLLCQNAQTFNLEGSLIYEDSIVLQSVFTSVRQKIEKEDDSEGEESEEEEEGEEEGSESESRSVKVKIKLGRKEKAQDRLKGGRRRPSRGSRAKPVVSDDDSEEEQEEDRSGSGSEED

No constants are given. Whether binding was seen depends on the method and setting. For some of these results: Binding seen in cells or lysates may run through a third protein. Some results given as binding are weak or reduced against the parent protein; the word gives no strength.

For “BRG1, C-terminal 530 amino acids (Y2H clone, Gal4 transactivation domain fusion) (from UniProt P51532 1118-1647) (domain or fragment)”, the binding entry in assay [1] is “binds”.
Consider “MYC-tagged p16^INK4a (from UniProt P42771 1-156)”, for which, in assay [2], the binding result was “binds”.
“endogenous BRG1 (from UniProt P51532 1-1647)”: the binding entry in assay [3] and in assay [4] was “binds” in each case.

For the origin of these results see article PMC2644676.
